These are yes or no findings as the source states them, for the method shown. For part of these data: In cells and extracts the contact can be indirect. Some binding calls cover weakened binding; strength is not graded here.
Columns and labels:
RelA [NF-κB p65] (human) [1] = target: RelA [NF-κB p65] (human) (UniProt Q04206); assay: co-immunoprecipitation from Caco-2 cell lysate, western blot
RelA [NF-κB p65] (human) [2] = target: RelA [NF-κB p65] (human) (UniProt Q04206); assay: in vitro translation and immunoprecipitation (FIG. 5B legend)
RelA [NF-κB p65] (human) [3] = target: RelA [NF-κB p65] (human) (UniProt Q04206); assay: summary of experimental work (co-immunoprecipitation, co-localisation in Caco-2 cells)
RelA [NF-κB p65] (human) [4] = target: RelA [NF-κB p65] (human) (UniProt Q04206); assay: in vitro translation and immunoprecipitation
[5] = target: YFP-RelA (chimeric RelA linked to yellow fluorescent protein) (human) (UniProt Q04206); assay: fluorescence microscopy of transfected Caco-2 and Hela cells, and IP (results not shown)

Protein sequences, listed by entry. Tags and fused reporters are not part of them. Lines headed by an entry give the natural chain unless they say otherwise; changes in a name come on top.
UniProt Q04206: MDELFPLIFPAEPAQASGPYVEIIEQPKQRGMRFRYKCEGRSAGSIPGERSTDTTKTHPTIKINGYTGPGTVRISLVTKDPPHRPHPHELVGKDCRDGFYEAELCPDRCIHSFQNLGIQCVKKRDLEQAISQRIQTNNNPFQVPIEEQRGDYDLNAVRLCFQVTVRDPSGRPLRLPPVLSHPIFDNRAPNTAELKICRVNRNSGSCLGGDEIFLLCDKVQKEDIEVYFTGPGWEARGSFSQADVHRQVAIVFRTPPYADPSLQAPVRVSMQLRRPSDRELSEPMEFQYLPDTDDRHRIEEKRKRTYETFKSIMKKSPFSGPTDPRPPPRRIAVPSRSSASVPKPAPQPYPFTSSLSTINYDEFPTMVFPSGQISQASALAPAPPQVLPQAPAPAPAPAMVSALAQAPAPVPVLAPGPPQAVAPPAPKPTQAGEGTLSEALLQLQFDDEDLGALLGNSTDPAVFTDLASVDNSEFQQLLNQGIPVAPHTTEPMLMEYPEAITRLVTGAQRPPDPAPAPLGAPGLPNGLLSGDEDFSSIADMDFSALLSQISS

Row | binding (RelA [NF-κB p65] (human) [1]) | binding (RelA [NF-κB p65] (human) [2]) | binding (RelA [NF-κB p65] (human) [3]) | binding (RelA [NF-κB p65] (human) [4]) | binding [5] | Substance
1 | binds | binds | binds | binds | – | peroxisome proliferator-activated receptor gamma (PPARγ) (from UniProt P37231 1-477)
2 | – | – | – | – | binds | CFP-PPARγ (DN) (chimeric construct of the dominant negative mutant of PPARγ and cyan fluorescent protein) (from UniProt P37231 1-477)
3 | – | – | – | – | binds | CFP-PPARγ (chimeric construct of wild type human PPARγ and cyan fluorescent protein) (from UniProt P37231 1-477)
